Laboratory results reported in article PMC2657911.

Test system: T1, His10-SgcR3 (Streptomyces globisporus C-1027)
T1 sequence (looked up): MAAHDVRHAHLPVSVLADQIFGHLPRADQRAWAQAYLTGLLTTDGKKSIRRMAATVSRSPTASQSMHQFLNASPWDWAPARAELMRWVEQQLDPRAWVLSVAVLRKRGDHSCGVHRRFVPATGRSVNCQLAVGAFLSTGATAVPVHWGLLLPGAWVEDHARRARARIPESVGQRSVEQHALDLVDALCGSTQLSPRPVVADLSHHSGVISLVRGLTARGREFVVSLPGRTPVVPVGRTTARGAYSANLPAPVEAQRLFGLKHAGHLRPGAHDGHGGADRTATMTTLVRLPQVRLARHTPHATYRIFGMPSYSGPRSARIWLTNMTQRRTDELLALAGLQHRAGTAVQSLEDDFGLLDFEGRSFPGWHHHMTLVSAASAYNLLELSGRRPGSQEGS
Assay: EMSA
Conditions: 20 fmol probe, 100 mM Tris/HCl pH 7.5, 500 mM KCl, 4 C, 20 min, 5% native PAGE in 0.5x TBE at 4 C, recombinant protein, residues 1-395, protein details: N-terminal His10 (pET-16b), label: 3'-end Biotin-11-ddUTP, probe letters rebuilt from the primers and the genome

| Sequence | binding result (0.5-27 pmol protein, shift abolished by 200-fold unlabeled probe) | binding result (13.5 pmol protein) |
| --- | --- | --- |
| ACGATCGTGTCCGCGTAGGCCTCCAGGGTCATGGTCCGGATATCGCCGGCCGGCGCCCCTCGCTCATTGTCGTCGCGCAACTCGCTCTCCATTCTCGCAGTCCGGAGTGGGATGCCTTGTGGCGAGGAGAAAGCTAGGTTCGTTCGACCGGTTCAAGCAACTAGCCAAAGTCGAGGCGACCTTGAAACCGACTCCACGGAGTTGGCGCGAAGCGGCGGATGGATTACACGCGCGGGCGAGCGGCTCACTAGTCTGGCCGCACGGATGTCTTCATCACCTGCACGTGGAAAAGCTTCTGCACGGGCACCGCATGTGGAAGTGAGCCCTGGTCTCATGTCTTGGGGGAAACGTGAAAAGTGACTCTGCCCAACGCGCCGTGGAGCGATCACGCCGTGTCGTACGGATCGATGAACTCATTCCCGCCGATTCCCCGCGCCTGAACGGAATCGATCGTT (double strand) [sgcR1R2 promoter region (455 bp)] | binds | – |
| GAGCTGCGCGGAAGGAAGGCGTTGGCGCTGGAGTCCTGGACGTCGGCGAGCTTCCCCGCCAGCGGGCCCAGCGCCATCGCGATGATGAGCCAGGCGGCCAGGACCAGCCACTTTCCACGTCTGTCACCGGGCACACCACTGGTGCGCTTGAACCAGGCTTGCAAGGGGGGCTCCTTCGGGCACGTCTCGGATTCCGCGATGGCCGGGAGTGTTGGAGAGGGCCGCACTGCACGGCCGTTCCGACGCGGCCGGCGGGGGCCTCCATCGTTCCCAACTCCACCTGGAAGACGTCAACTTCCAGATTGCGCAGTTGGTCGAACAAGGTTTGACCGAACGCTTCGGCGCCGTACGCGGAGCTCCGCACTCAAGGAGAAGCGTCCTGTGCGCCGCCGCCCCAAGATGGGCGTCGTGGCGAATGACGTGACTGTGACCGAGCCGGACCGGGGGCCTTCGCCGGCCTCCGGATCTGCGGTGTTGCACC (double strand) [sgcC1 upstream region (481 bp)] | – | no binding |
| GAGGGGTTTTGAGGGGTGAAAAAGGGACTGAAGGGACTCAACTTCCCCATTATGAGCTGAGTAGAAGAAAGCAGTATGACGATATGCGCGCCTACATACGCGCGCGTACATAGTGAGCTTATAATGCGGAAGTTGAGTCCCTTCAGTCCCTTTTCGTGGGGTCGTATCCCCTCTGACCTGCGGTGATGACCAGGGACTCAACGCAGGGACCGAAGAGGGACCAAGTCCCTGCGCGGGGCGGGCGACGGTAATCGTGCAGTGCCCCCTCCCCCGTTTCCCACAGCGAGTCGTCGCTCCCCTGTGAGGCCGGAGAGGGTCCTAGAACCCCTCAGGGGCCGTTCTGTGGCCCTCTGGGCCTCCTCCTGGCCATTTACCCCATGGGGGCGCTTGGGGGCGTCAGGAGGGCTTGTGAGGGCTCTGCCGGGAAGTGGCGGATTGCGCATGGCAGGAGATGCCCCGACAGCGGCCGGGAATCGACGATGTCCCCCGACCCCTATC (double strand) [sgcB1 upstream region (496 bp)] | – | no binding |
| GCCCACGCCCTCTGATCGGCCCTCGGCAGGTGCCCGAAGATCTGATCGGCAAGTACGGAGACCGGCAGGTGCGCGTGCCTCACGTCGTGTGCCGCCATGGCTCGTTTCCCTTCTCCTGGGCAACCGATCGAGCGCCGCGATATCGCAGCGAGCGATATGGTGTTCTACGGGGAGGGCGCTTCCGTCGGCCGGAGACCTGGCAGGGAACGTCGGCCCCATGGGGCTCGAAGATCGCCGACATCCCTCCCCCTCCCCCGCTTGACCAAGCCTTTTACCTGCTTGATCGATTCGTGGTTGTCACCTGGTCGCCATTGCGCCGAAACTTGAGTGCCGTCGGCCTGCCCCCCCGGGCAAGGCTCCGAACCCCTTCGGCATAAAACTCCGCACGCTGCTTCGCCATGCCGATCATCGTCGGAGAGGACATCGTAAATCAGGATCGGCCGGTACGTACACGGAGCATGGTCCCG (double strand) [sgcR3 upstream region (467 bp)] | – | no binding |

No signal at the amounts used counts as a negative. Where a protein sequence is shown, tags need not be part of it.
